Three sequences from PMC9772228, “Structure of a RecT/Redβ family recombinase in complex with a duplex intermediate of DNA annealing” can be followed below.

Residue numbers refer to the chain shown, from its start. For part of these data: Weaker means in comparison with the reference protein, sequence or condition of that experiment. Where a protein sequence is shown, tags need not be part of it. For part of these data: For at least one entry, the source does not settle the construct or the ends of the probe. For part of these data: At least one verdict rests on a figure or table, not on a statement of the authors.

What all share (assay): EMSA
Common to all, as to conditions: EMSA: PBS pH 7.4 (or KH2PO4/10 mM MgCl2 pH 6.0), 3.6 or 5 uM protein, 25 uM nt DNA, 37 C 15 min per strand, 0.8% agarose 1x TBE, recombinant protein, residues 1-271, protein details: N-terminal 6His vector tag (20 aa) retained
(In general: A gel shift assay detects complexes by their altered migration in electrophoresis.)

Data set [1] addresses T1, LiRecT F171A (Listeria innocua CLIP 11262) (UniProt Q92FL9).
T1 sequence (looked up): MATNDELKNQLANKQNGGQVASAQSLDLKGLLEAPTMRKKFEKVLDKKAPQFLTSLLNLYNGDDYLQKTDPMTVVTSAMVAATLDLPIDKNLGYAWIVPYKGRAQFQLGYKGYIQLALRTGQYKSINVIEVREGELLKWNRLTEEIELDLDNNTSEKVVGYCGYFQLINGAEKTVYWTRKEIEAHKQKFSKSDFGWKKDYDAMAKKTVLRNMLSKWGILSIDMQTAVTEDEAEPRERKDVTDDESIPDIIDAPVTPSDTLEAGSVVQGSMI

The target of data set [2] is T2, LiRecT I126A (Listeria innocua CLIP 11262) (UniProt Q92FL9).
T2 sequence (looked up): T1 sequence (looked up) with I126A, A171F

In data set [3] the target is T3, LiRecT K111A (Listeria innocua CLIP 11262) (UniProt Q92FL9).
T3 sequence (looked up): T1 sequence (looked up) with K111A, A171F

For data set [4], the target named is T4, LiRecT W216A (Listeria innocua CLIP 11262) (UniProt Q92FL9).
T4 sequence (looked up): T1 sequence (looked up) with A171F, W216A

For data set [5], the target named is T5, LiRecT Y110A (Listeria innocua CLIP 11262) (UniProt Q92FL9).
T5 sequence (looked up): T1 sequence (looked up) with Y110A, A171F

The target of data set [6] is T6, LiRecT I218E (text: I128E) (Listeria innocua CLIP 11262) (UniProt Q92FL9).
T6 sequence (looked up): T1 sequence (looked up) with A171F, I218E

The target in data set [7] is T7, LiRecT L118A (Listeria innocua CLIP 11262) (UniProt Q92FL9).
T7 sequence (looked up): T1 sequence (looked up) with L118A, A171F

Data set [8] concerns the target T8, LiRecT R210A (Listeria innocua CLIP 11262) (UniProt Q92FL9).
T8 sequence (looked up): T1 sequence (looked up) with A171F, R210A

Where [9] appears, read: label: 5'-Cy3, single-stranded DNA.
Where [10] appears, read: label: 5'-Cy5, single-stranded DNA.

Turning to “GCGGATGGCTTAGAGCAGAATCGCCCTGCATAGCTCGATTTTTGCGGATG [Cy3-50mer]”, the binding result in data set [1] (setting [9]) was “binds”; in data set [2] (setting [9]) it was “binds”; in data set [3] (setting [9]), “binds more weakly”; in data set [4] (setting [9]) it was “binds”; in data set [5] (setting [9]), “binds”; in data set [6] (disrupted almost completely, label: 5'-Cy3, single-stranded DNA) it was “binds more weakly”. In addition, the binding result in data set [7] (setting [9]) and in data set [8] (setting [9]) was “binds” throughout.
“GCGGATGGCTTAGAGCAGAATCGCCCTGCATAGCTCGATTTTTGCGGATG / CCATCCGCAAAAATCGAGCTATGCAGGGCGATTCTGCTCTAAGCCATCCG [50-mer duplex intermediate (sequential addition)]”: the binding result in data set [1] (label: 5'-Cy3,5'-Cy5) is reported as “binds”; in data set [2] (label: 5'-Cy3,5'-Cy5), “binds”; in data set [3] (label: 5'-Cy3,5'-Cy5) it was “binds more weakly”; in data set [4] (label: 5'-Cy3,5'-Cy5), “binds”; in data set [5] (label: 5'-Cy3,5'-Cy5) it was “binds”; in data set [6] (small amount of aggregates in well, label: 5'-Cy3,5'-Cy5) it was “binds more weakly”. For the same sequence, the binding result in data set [7] (label: 5'-Cy3,5'-Cy5) and in data set [8] (label: 5'-Cy3,5'-Cy5) was “binds” in each case.
On to “CCATCCGCAAAAATCGAGCTATGCAGGGCGATTCTGCTCTAAGCCATCCG [Cy5-50mer]”, for which the binding result was “binds” in data set [1] (setting [10]); “binds” in data set [2] (setting [10]); “binds more weakly” in data set [3] (setting [10]); “binds” in data set [4] (setting [10]); “binds” in data set [5] (setting [10]); “binds more weakly” in data set [6] (disrupted almost completely, label: 5'-Cy5, single-stranded DNA). In addition, the binding result in data set [7] (setting [10]) and in data set [8] (setting [10]) was “binds” throughout.
